# Test results reported in patent publication US20060057669A1, “Inactive transcription factor tif-ia and uses thereof” (priority 2002, published 2006).
# At least one compound was matched to its structure with a doubt left.
# Assays:
# TIF-IA [1] = assay: In vitro transcription assay of TIF-IA purified from treated HEK293T cells, in nuclear extracts from rapamycin-treated cells; assay type: biochemical; conditions: cells co-expressing wild-type S6K1 or rapamycin-resistant S6K1 mutant
# Experimental: Nuclear extracts from rapamycin-treated cells were supplemented with 30 and 90 ng of TIF-IA that was immunopurified from HEK293T cells co-expressing FLAG-tagged TIF-IA and either GST/myc-tagged wild-type S6K1 (lanes 2-5) or S6K1E389ANAC (lanes 6-9).
# B) Transcriptional activity of TIF-IA mutants in vitro. TIF-IA was purified from cells that were mock-treated (lanes 2, 3), or treated for 1 hr with either okadaic acid (1 μM), rapamycin (20 nM), calyculin A (50 nM), or both okadaic acid or calyculin A and rapamycin as indicated. 30 ng (even numbers) and 90 ng (odd numbers except 1) of TIF-IA were assayed for their capability to restore transcription of nuclear extracts from rapamycin-treated cells.
# If S6K1 or S6K1-activated kinases were the only pathways that target TIF-IA and mediate mTOR-dependent regulation of Pol I transcription, then rapamycin should not inactivate TIF-IA if a rapamycin-resistant S6K1 mutant was co-expressed. This, however, was not the case.
# Two mechanisms could be responsible for the decreased phosphorylation of S44 after rapamycin treatment, e.g., inhibition of the respective kinase or activation of a counteracting phosphatase. […] If PP2A dephosphorylates and thus inactivates TIF-IA, inhibition of PP2A should protect TIF-IA from inactivation by rapamycin. […]
# [2] = system: cellular 45S pre-rRNA synthesis in HEK293T cells; assay: Northern blot of 45S pre-rRNA in rapamycin-treated HEK293T cells; assay type: cell-based; conditions: 20 or 80 nM rapamycin, 60 min
# Pol I transcription = assay: In vitro transcriptional activity of nuclear extracts from treated FM3A cells; assay type: cell-based
# [3] = system: cellular localization of TIF-IA; assay: Immunofluorescence of FLAG-tagged TIF-IA in U-20S cells; assay type: cell-based; conditions: 20 nM rapamycin, 2 hr
# TIF-IA [4] = assay: Two-dimensional tryptic phosphopeptide mapping of TIF-IA labeled in vivo in HEK293T cells; assay type: cell-based, human; conditions: 20 nM rapamycin, 2 hr labeling
# Experimental: HEK293T cells were transfected with pcDNA3.1-FLAG-TIF-IA, starved for 12 hr and labeled for 4 hr with [^32P]orthophosphate. 30 min before harvesting, 10% dialyzed FCS was added and cells were incubated in the absence (left panel) or presence of 40 μM PD98059 (right panel). Immunopurified TIF-IA was subjected to two-dimensional phosphopeptide mapping.
# (B) Tryptic peptide maps of TIF-IA phosphorylated in vivo. FLAG-tagged wild-type TIF-IA, TIF-IAS633A and TIF-IAS649A were expressed in HEK293T cells and labeled with [^32P]orthophosphate for 4 hr. TIF-IA was purified by immunoprecipitation and digested with trypsin. Phosphopeptides were separated on cellulose thin-layer plates and visualized by autoradiography. The sequence of the C-terminus of human TIF-IA (H.s.) and an alignment with the corresponding sequences from mouse (M.m.), Drosophila melanogaster (D.m.) and Saccharomyces pombe (S.p.) is shown above.
# (A) Two-dimensional tryptic phosphopeptide maps of TIF-IA. HEK293T cells were transfected with FLAG-tagged TIF-IA and labeled for 2 hr with [^32P]orthophosphate in the absence (left) or presence (right) of 20 nM rapamycin. TIF-IA was immunopurified, digested with trypsin, separated on cellulose thin-layer plates and visualized by autoradiography.
# (B) Tryptic phosphopeptide map of TIF-IAS44A phosphorylated in vivo. […]
# TIF-IA [5] = assay: In vitro transcription assay of TIF-IA purified from treated cells, in nuclear extract from density-arrested FM3A cells; assay type: biochemical; conditions: rapamycin-treated cells; 20 and 40 ng TIF-IA
# Experimental: (A) TIF-IA activity in starved and serum-stimulated cells. The indicated amounts of TIF-IA purified from starved NIH3T3 cells (lanes 2-4) or cells that were stimulated by serum in the absence (lanes 5-7) or presence of PD98059 (lanes 8-10) were assayed for their capability to restore transcription of a nuclear extract from density-arrested FM3A cells (lane 1). The amount and purity of TIF-IA were estimated on silver-stained SDS-polyacrylamide gels (data not shown).
# FLAG-tagged TIF-IA was purified from untreated (lanes 2-3) or PD98059-treated HEK293T cells (lanes 4-5). The indicated amounts of TIF-IA were assayed for their capability to restore transcription of a nuclear extract from density-arrested FM3A cells (lane 1). The amount of TIF-IA was estimated on silver-stained SDS-polyacrylamide gels (data not shown).
# 20 and 40 ng of TIF-IA that was immunopurified from untreated (lanes 2, 3) and rapamycin-treated cells (lanes 4, 5) were added to transcription reactions containing nuclear extracts (30 μg) from density-arrested cells.
# Nuclear extracts were prepared from exponentially growing (8×10^5 cells/ml), density-arrested or PD98059-treated (CN Bioscience, Bad Soden, Germany) 40 μM, 0.5 hr) or rapamycin-treated FM3A cells (ATCC, Manassas, USA). […] After incubation for 60 min at 30° C., RNA was extracted and analyzed on non-denaturing 5% polyacrylamide gels […]
# [6] = system: interaction between TIF-IA and Pol I; assay: Co-immunoprecipitation of Pol I with FLAG-TIF-IA from rapamycin-treated HeLa cells; assay type: cell-based, human
smiles,measurement,setting,value
CO[C@H]1C[C@@H]2CC[C@@H](C)[C@@](O)(O2)C(=O)C(=O)N2CCCC[C@H]2C(=O)O[C@H]([C@H](C)C[C@@H]2CC[C@@H](O)[C@H](OC)C2)CC(=O)[C@H](C)/C=C(\C)[C@@H](O)[C@@H](OC)C(=O)[C@H](C)C[C@H](C)/C=C/C=C/C=C/1C [rapamycin],transcriptional activity of TIF-IA from treated cells,TIF-IA [1],inactivated TIF-IA
same,cellular 45S pre-rRNA synthesis,[2],almost complete shut-off of cellular 45S pre-rRNA synthesis
same,rDNA transcriptional activity of nuclear extracts from treated cells,Pol I transcription,virtually inactive
same,effect on cellular localization of TIF-IA,[3],a significant fraction of TIF-IA was translocated into the cytoplasm
same,phosphorylation of TIF-IA phosphopeptide spot a,TIF-IA [4],enhanced
same,phosphorylation of TIF-IA phosphopeptide spot b (and b′),TIF-IA [4],markedly suppressed
same,transcriptional activity of TIF-IA from treated cells,TIF-IA [5],transcriptionally inactive
same,interaction of TIF-IA with RPA116 and PAF67,[6],markedly decreased
